According to paper PMC4666396:
Results are given in words; binding and its absence hold for the method and conditions named. In cells and extracts the contact can be indirect. Here binding means that the protein was enriched with, or labelled near, the bait; the list need not be complete.

T1: Splicing factor 1 (SF1) (human (endogenous in HeLa)) (UniProt Q15637)
T1 sequence: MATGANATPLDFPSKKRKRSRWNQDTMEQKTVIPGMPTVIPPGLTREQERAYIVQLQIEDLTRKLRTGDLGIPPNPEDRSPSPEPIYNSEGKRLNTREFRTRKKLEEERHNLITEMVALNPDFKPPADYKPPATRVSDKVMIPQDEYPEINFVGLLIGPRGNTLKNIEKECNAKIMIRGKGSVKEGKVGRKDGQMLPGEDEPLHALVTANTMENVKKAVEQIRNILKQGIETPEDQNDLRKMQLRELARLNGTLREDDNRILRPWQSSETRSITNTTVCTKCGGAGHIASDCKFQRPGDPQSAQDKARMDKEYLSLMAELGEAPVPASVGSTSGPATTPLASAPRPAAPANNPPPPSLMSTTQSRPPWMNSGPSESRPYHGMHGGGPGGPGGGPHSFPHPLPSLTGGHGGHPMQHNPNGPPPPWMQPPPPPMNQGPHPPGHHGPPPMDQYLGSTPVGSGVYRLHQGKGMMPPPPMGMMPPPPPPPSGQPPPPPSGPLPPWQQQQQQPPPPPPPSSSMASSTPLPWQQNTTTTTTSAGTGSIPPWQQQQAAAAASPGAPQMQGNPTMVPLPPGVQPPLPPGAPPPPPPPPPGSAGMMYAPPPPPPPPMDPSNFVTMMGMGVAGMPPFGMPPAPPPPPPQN


Molecular target: T1, Splicing factor 1 (SF1) (human (endogenous in HeLa))
Assay: affinity purification with mass spectrometry; anti-SF1 on Protein G Sepharose; HeLa cell nuclear extract without or with 0.3 mg/ml RNase A; IP buffer 50 mM Tris-HCl pH 7.9, 100 mM NaCl, 0.05% NP-40, 0.5 mM DTT, 1 h 4°C; 1D PAGE, LC-MSMS; control mouse IgG

Row | Binder | binding
1 | hSNU66 (protein, UniProt O43290 1-800) MGSSKKHRGEKEAAGTTAAAGTGGATEQPPRHREHKKHKHRSGGSGGSGGERRKRSRERGGERGSGRRGAEAEARSSTHGRERSQAEPSERRVKREKRDDGYEAAASSKTSSGDASSLSIEETNKLRAKLGLKPLEVNAIKKEAGTKEEPVTADVINPMALRQREELREKLAAAKEKRLLNQKLGKIKTLGEDDPWLDDTAAWIERSRQLQKEKDLAEKRAKLLEEMDQEFGVSTLVEEEFGQRRQDLYSARDLQGLTVEHAIDSFREGETMILTLKDKGVLQEEEDVLVNVNLVDKERAEKNVELRKKKPDYLPYAEDESVDDLAQQKPRSILSKYDEELEGERPHSFRLEQGGTADGLRERELEEIRAKLRLQAQSLSTVGPRLASEYLTPEEMVTFKKTKRRVKKIRKKEKEVVVRADDLLPLGDQTQDGDFGSRLRGRGRRRVSEVEEEKEPVPQPLPSDDTRVENMDISDEEEGGAPPPGSPQVLEEDEAELELQKQLEKGRRLRQLQQLQQLRDSGEKVVEIVKKLESRQRGWEEDEDPERKGAIVFNATSEFCRTLGEIPTYGLAGNREEQEELMDFERDEERSANGGSESDGEENIGWSTVNLDEEKQQQDFSASSTTILDEEPIVNRGLAAALLLCQNKGLLETTVQKVARVKAPNKSLPSAVYCIEDKMAIDDKYSRREEYRGFTQDFKEKDGYKPDVKIEYVDETGRKLTPKEAFRQLSHRFHGKGSGKMKTERRMKKLDEEALLKKMSSSDTPLGTVALLQEKQKAQKTPYIVLSGSGKSMNANTITK | binds
2 | PCNP (protein, UniProt Q8WW12 1-178) MADGKAGDEKPEKSQRAGAAGGPEEEAEKPVKTKTVSSSNGGESSSRSAEKRSAEEEAADLPTKPTKISKFGFAIGSQTTKKASAISIKLGSSKPKETVPTLAPKTLSVAAAFNEDEDSEPEEMPPEAKMRMKNIGRDTPTSAGPNSFNKGKHGFSDNQKLWERNIKSHLGNVHDQDN | binds
3 | ZC3H18 (protein, UniProt Q86VM9 1-953) MDVAESPERDPHSPEDEEQPQGLSDDDILRDSGSDQDLDGAGVRASDLEDEESAARGPSQEEEDNHSDEEDRASEPKSQDQDSEVNELSRGPTSSPCEEEGDEGEEDRTSDLRDEASSVTRELDEHELDYDEEVPEEPAPAVQEDEAEKAGAEDDEEKGEGTPREEGKAGVQSVGEKESLEAAKEKKKEDDDGEIDDGEIDDDDLEEGEVKDPSDRKVRPRPTCRFFMKGNCTWGMNCRFIHPGVNDKGNYSLITKADPFPPNGAPPLGPHPLMPANPWGGPVVDEILPPPPPEPPTESAWERGLRHAKEVLKKATIRKEQEPDFEEKRFTVTIGEDEREFDKENEVFRDWNSRIPRDVRDTVLEPYADPYYDYEIERFWRGGQYENFRVQYTETEPYHNYRERERERERENRQRERERERERDRERERRQRERERERERERDKERQRRKEEWERERAKRDEKDRQHRDRDREKEREKEKGKPKPRSPQPPSRQAEPPKKEAATTGPQVKRADEWKDPWRRSKSPKKKLGVSVSPSRARRRRKTSASSASASNSSRSSSRSSSYSGSGSSRSRSRSSSYSSYSSRSSRHSSFSGSRSRSRSFSSSPSPSPTPSPHRPSIRTKGEPAPPPGKAGEKSVKKPAPPPAPPQATKTTAPVPEPTKPGDPREARRKERPARTPPRRRTLSGSGSGSGSSYSGSSSRSRSLSVSSVSSVSSATSSSSSAHSVDSEDMYADLASPVSSASSRSPAPAQTRKEKGKSKKEDGVKEEKRKRDSSTQPPKSAKPPAGGKSSQQPSTPQQAPPGQPQQGTFVAHKEIKLTLLNKAADKGSRKRYEPSDKDRQSPPPAKRPNTSPDRGSRDRKSGGRLGSPKPERQRGQNSKAPAAPADRKRQLSPQSKSSSKVTSVPGKASDPGAASTKSGKASTLSRREELLKQLKAVEDAIARKRAKIPGKA | binds

Next, values leading:

Row | binding | Binder
4 | binds | Acinus (protein, UniProt Q9UKV3 1-1341) MWRRKHPRTSGGTRGVLSGNRGVEYGSGRGHLGTFEGRWRKLPKMPEAVGTDPSTSRKMAELEEVTLDGKPLQALRVTDLKAALEQRGLAKSGQKSALVKRLKGALMLENLQKHSTPHAAFQPNSQIGEEMSQNSFIKQYLEKQQELLRQRLEREAREAAELEEASAESEDEMIHPEGVASLLPPDFQSSLERPELELSRHSPRKSSSISEEKGDSDDEKPRKGERRSSRVRQARAAKLSEGSQPAEEEEDQETPSRNLRVRADRNLKTEEEEEEEEEEEEDDEEEEGDDEGQKSREAPILKEFKEEGEEIPRVKPEEMMDERPKTRSQEQEVLERGGRFTRSQEEARKSHLARQQQEKEMKTTSPLEEEEREIKSSQGLKEKSKSPSPPRLTEDRKKASLVALPEQTASEEETPPPLLTKEASSPPPHPQLHSEEEIEPMEGPAPAVLIQLSPPNTDADTRELLVSQHTVQLVGGLSPLSSPSDTKAESPAEKVPEESVLPLVQKSTLADYSAQKDLEPESDRSAQPLPLKIEELALAKGITEECLKQPSLEQKEGRRASHTLLPSHRLKQSADSSSSRSSSSSSSSSRSRSRSPDSSGSRSHSPLRSKQRDVAQARTHANPRGRPKMGSRSTSESRSRSRSRSRSASSNSRKSLSPGVSRDSSTSYTETKDPSSGQEVATPPVPQLQVCEPKERTSTSSSSVQARRLSQPESAEKHVTQRLQPERGSPKKCEAEEAEPPAATQPQTSETQTSHLPESERIHHTVEEKEEVTMDTSENRPENDVPEPPMPIADQVSNDDRPEGSVEDEEKKESSLPKSFKRKISVVSATKGVPAGNSDTEGGQPGRKRRWGASTATTQKKPSISITTESLKSLIPDIKPLAGQEAVVDLHADDSRISEDETERNGDDGTHDKGLKICRTVTQVVPAEGQENGQREEEEEEKEPEAEPPVPPQVSVEVALPPPAEHEVKKVTLGDTLTRRSISQQKSGVSITIDDPVRTAQVPSPPRGKISNIVHISNLVRPFTLGQLKELLGRTGTLVEEAFWIDKIKSHCFVTYSTVEEAVATRTALHGVKWPQSNPKFLCADYAEQDELDYHRGLLVDRPSETKTEEQGIPRPLHPPPPPPVQPPQHPRAEQREQERAVREQWAEREREMERRERTRSEREWDRDKVREGPRSRSRSRDRRRKERAKSKEKKSEKKEKAQEEPPAKLLDDLFRKTKAAPCIYWLPLTDSQIVQKEAERAERAKEREKRRKEQEEEEQKEREKEAERERNRQLEREKRREHSRERDRERERERERDRGDRDRDRERDRERGRERDRRDTKRHSRSRSRSTPVRDRGGRR
5 | binds | ANXA6 (protein, UniProt P08133 1-673) MAKPAQGAKYRGSIHDFPGFDPNQDAEALYTAMKGFGSDKEAILDIITSRSNRQRQEVCQSYKSLYGKDLIADLKYELTGKFERLIVGLMRPPAYCDAKEIKDAISGIGTDEKCLIEILASRTNEQMHQLVAAYKDAYERDLEADIIGDTSGHFQKMLVVLLQGTREEDDVVSEDLVQQDVQDLYEAGELKWGTDEAQFIYILGNRSKQHLRLVFDEYLKTTGKPIEASIRGELSGDFEKLMLAVVKCIRSTPEYFAERLFKAMKGLGTRDNTLIRIMVSRSELDMLDIREIFRTKYEKSLYSMIKNDTSGEYKKTLLKLSGGDDDAAGQFFPEAAQVAYQMWELSAVARVELKGTVRPANDFNPDADAKALRKAMKGLGTDEDTIIDIITHRSNVQRQQIRQTFKSHFGRDLMTDLKSEISGDLARLILGLMMPPAHYDAKQLKKAMEGAGTDEKALIEILATRTNAEIRAINEAYKEDYHKSLEDALSSDTSGHFRRILISLATGHREEGGENLDQAREDAQVAAEILEIADTPSGDKTSLETRFMTILCTRSYPHLRRVFQEFIKMTNYDVEHTIKKEMSGDVRDAFVAIVQSVKNKPLFFADKLYKSMKGAGTDEKTLTRIMVSRSEIDLLNIRREFIEKYDKSLHQAIEGDTSGDFLKALLALCGGED
6 | binds | ARS2B (protein, UniProt Q9BXP5 1-876) MGDSDDEYDRRRRDKFRRERSDYDRSRERDERRRGDDWNDREWDRGRERRSRGEYRDYDRNRRERFSPPRHELSPPQKRMRRDWDEHSSDPYHSGYEMPYAGGGGGPTYGPPQPWGHPDVHIMQHHVLPIQARLGSIAEIDLGVPPPVMKTFKEFLLSLDDSVDETEAVKRYNDYKLDFRRQQMQDFFLAHKDEEWFRSKYHPDEVGKRRQEARGALQNRLRVFLSLMETGWFDNLLLDIDKADAIVKMLDAAVIKMEGGTENDLRILEQEEEEEQAGKPGEPSKKEEGRAGAGLGDGERKTNDKDEKKEDGKQAENDSSNDDKTKKSEGDGDKEEKKEDSEKEAKKSSKKRNRKHSGDDSFDEGSVSESESESESGQAEEEKEEAEEALKEKEKPKEEEWEKPKDAAGLECKPRPLHKTCSLFMRNIAPNISRAEIISLCKRYPGFMRVALSEPQPERRFFRRGWVTFDRSVNIKEICWNLQNIRLRECELSPGVNRDLTRRVRNINGITQHKQIVRNDIKLAAKLIHTLDDRTQLWASEPGTPPLPTSLPSQNPILKNITDYLIEEVSAEEEELLGSSGGAPPEEPPKEGNPAEINVERDEKLIKVLDKLLLYLRIVHSLDYYNTCEYPNEDEMPNRCGIIHVRGPMPPNRISHGEVLEWQKTFEEKLTPLLSVRESLSEEEAQKMGRKDPEQEVEKFVTSNTQELGKDKWLCPLSGKKFKGPEFVRKHIFNKHAEKIEEVKKEVAFFNNFLTDAKRPALPEIKPAQPPGPAQILPPGLTPGLPYPHQTPQGLMPYGQPRPPILGYGAGAVRPAVPTGGPPYPHAPYGAGRGNYDAFRGQGGYPGKPRNRMVRGDPRAIVEYRDLDAPDDVDFF
